# Measurements: PubChem BioAssay AID595 (National Center for Advancing Translational Sciences (NCATS), 2007)
# The campaign covered roughly 71,000 compounds. About 310 (0.44%) were called active. Inconclusive results, whose numbers are uncertain, are shown with a selection of clear calls. The call rests on the fitted dose curve; in most records, active means well fitted curve in either direction with a large enough effect; inconclusive means small, poorly fitted or top-dose-only effect, or another doubt; inactive means flat fitted curve, though single readings scatter. A potency beside an inconclusive call is a rough fit, not a confirmed value.
# Test system: Hsp90 C-terminal peptide / TPR2A (Hop) interaction, human
# Assay: qHTS Assay for Disrupters of an Hsp90 Co-Chaperone Interaction
# Settings: AlphaScreen TPR2A-His6 binding biotin-Hsp90 C-terminal peptide; activity change, negative = inhibition: at 57 µM (top of the series) unless noted
# Source text: NIH Chemical Genomics Center [NCGC]
# NIH Molecular Libraries Screening Centers Network [MLSCN]
# Hsp90 (heat shock protein 90) is the essential molecular chaperone and it accounts for 1-2% of all cytosolic proteins and is critical for the activity of diverse cellular proteins that are involved in a variety of cellular processes, including development, cell cycle, and steroid hormone signaling. Its client proteins include signaling kinases such as IGF1R, Akt, v-Src, Raf-1; regulators of cell survival such as Bcr-Abl; and transcription factors such as mutated p53, estrogen and progesterone receptors. Hsp90 has emerged as an important target for cancer treatment due to its essential role in maintaining transformation and regulating the function of oncogenic signaling proteins.
# The in vivo function of Hsp90 is regulated by the binding and hydrolysis of ATP at its N-terminal. Geldanamycin binds to ATP site and inhibit Hsp90 function. Geldanamycin and its analogues are under clinical trials in cancer patients.
# This domain contains the binding site for tetratricopeptide repeat (TPR) domains on HOP (Hsp Organizing Protein). TPR is a structural motif used by a significant number of cochaperones by which the in vivo function of Hsp90 is regulated. TPR2A on HOP binds specifically to MEEVD motif of the C-terminal of Hsp90.
# A homogeneous AlphaScreen is developed to assess the interaction between TPR2A and MEEVD motif of the C-terminal of Hsp90 by using the isolated TPR2A domain and a synthesized 20mer Hsp90 C terminal peptide. AlphaScreen is two bead-based proximity-dependent chemical energy transfer luminescent assay platform. TPR2A-His-6 and biotinylated Hsp90 C terminal peptide will bring streptavidin donor beads and nickel chelate acceptor beads to a proximity range (less than 200 nm), and subsequently lead a chemical luminescent reaction upon exciting donor beads with 680 nm laser. Inhibition of TPR2A and MEEVD motif interaction by small molecules could attenuate or abolish this chemical luminescent reaction.
# Counter screening: Biotinylated-His-6 (PerkinElmer) can be utilized as a counter screen, as it serves as a linker to bring streptavidin beads and nickel chelate beads together. The counter screen can exclude alpha screen platform false positives due to small molecules being metal chelators, biotin analogues and imidazole analogues, or due to interfering with oxygen release from donor beads. Such an assay should be utilized to qualify any activity observed in this screen.
# NCGC Assay Protocol Summary:
# The assay was performed on 1536-well white plate (untreated solid bottom). Liquids were dispensed by 1536-well plate washer (Kalypsys, San Diego, CA). Plates were read on EnVision (PerkinElmer, Boston, MA).TPR2A-His6 was produced using a bacteria expression system and purified using a well developed method (Ghosh et al., 2000). Hsp90 C terminal 20-mer peptide with or without an N-terminal biotin group are synthesized using automated solid phase synthesis by the Yale Keck facility. The composition of assay buffer was (in mM) 25 HEPES, 100 KCl, 2 MgCl2 and 2 DTT; 0.1% BSA and 0.01% Tween-20. TPR2A-His6 binding to biotin-Hsp90 will bring streptavidin donor beads and nickel chelate acceptor beads (PerkinElmer) together and can be measured by Alpha reading by EnVision (PerkinElmer). Free Hsp90 blocks biotin-Hsp90 binding to TPR2 and serves as a positive control in the current asssay.
# The assay was performed at room temperature. All compounds were screened as titrations from […] to 46 uM final concentration. The assay was performed in 1536-well format plates (untreated white solid bottom, Corning Inc.) as follows:
# Sequence,Parameter,Value,Description
# 1,Reagent,3 uL TPR2A-His6,Final concentration was 5nM
# 2,Compound,23 nL,Final titration was from 0.7 nM to 46 uM
# 3,Time,15 minutes,Room temperature
# 4,Reagent,1 uL biotin-Hsp90,With and without free Hsp90. Final concentration was 10 nM for biotin-Hsp90 and 10uM for free Hsp90.
# 5,Time,1 hour,Room temperature
# […]
# On the % scale 0 is the no-effect control and ±100 the full control effect; potency means the concentration at half of the fitted maximal effect.
Compound,"activity change, negative = inhibition",Potency
CCOC(=O)Cn1nnnc1CN(Cc1ccc(OC)cc1)Cc1cc2cc(CC)ccc2[nH]c1=O,inconclusive: 42.5%,
CCCN1Cc2cccc(C(=O)NCc3ccc4c(c3)OCO4)c2C1=O,inconclusive: 45.2%,
CCc1cc(C(=O)OC)c(NC(=O)c2cc(Br)cs2)s1,,"inconclusive: 15.8 µM [activator, partial curve]"
COc1ccc(C(=O)N2CCC3(CC2)CN(c2cccc(-c4ccccc4)c2)C3)cc1,,"inconclusive: 31.6 µM [inhibitor, single point]"
O=C(Oc1ccccc1)N1CCC2(CCCN(c3ccc(-c4ccccc4)cc3)C2)CC1,inactive: -3.02%,
Cc1csc(NC(=O)CN2CCCCCC2)n1,inconclusive: 42%,
Cc1ccc2c(c1)C1C=CCC1C(C(=O)O)N2 (centres undefined),inconclusive: -42.8%,
COc1ccc(CNc2nc3nc(-c4ccccc4)cc(=O)n3[nH]2)cc1OC,inconclusive: 37%,
CCOC(=O)C(CCCOc1cccc(OC)c1)C(=O)OCC,,"inconclusive: 25.1 µM [activator, single point]"
COCc1cc(C)nc(SCC(=O)Nc2cc3c(cc2C#N)OCO3)c1C#N,inconclusive: 45.8%,
CN(C(=O)c1ccco1)c1nnc(C23CC4CC(CC(C4)C2)C3)s1,inconclusive: 56.5%,
Cc1ccsc1C(=O)OCc1csc(-c2ccccc2)n1,,"inconclusive: 31.6 µM [activator, single point]"
CC(=O)N1CCC2(CC1)CN(c1cccc(-c3ccccc3)c1)C2,,"inconclusive: 25.1 µM [inhibitor, single point]"
Cc1nc2cnc(Oc3ccccc3)nc2n(Cc2cccs2)c1=O,inactive: -8.42%,
CC(=O)N1CCCc2cc(S(=O)(=O)N3CCN(C4CCCCC4)CC3)ccc21,inconclusive: 46.3%,
Cc1cc(C)n(-c2nnc(C)c(=O)[nH]2)n1,,active: 1.58 µM
Oc1cc(O)cc(/C=C\c2ccc(O)c(O)c2)c1,,"inconclusive: 31.6 µM [inhibitor, partial curve]"
CCOc1ccc(NC(=O)CSc2nc3c(c(=O)n2-c2ccccc2OC)SCC3)cc1,inconclusive: 26.5%,
CN(C)Cc1ccccc1-c1nccc(N(C)C)n1,inconclusive: 90.5%,
CC(=O)c1ccc(S(=O)(=O)NC(=O)NC2CCCCC2)cc1,inconclusive: 67.7%,
Cc1nnc(SCC(=O)Nc2ncc3c(n2)CCCC3=O)s1,inconclusive: 40.7%,

Compound,"activity change, negative = inhibition",Potency
COc1ccc(C2C(C#N)=C(C)NC3=C2C(=O)CC(C)(C)C3)c(OC)c1 (centres undefined),inconclusive: 60.1%,
COc1ccc(OC)c2[nH]c(=O)c(CCNC(=O)c3ccc(S(=O)(=O)N4CCCC4)cc3)cc12,inconclusive: 38.1%,
O=C(Nc1nnc(/N=C/c2ccco2)s1)c1ccc(F)cc1,inactive: -1.29%,
Nc1ncn([C@@H]2O[C@H](CO)[C@@H](O)[C@H]2O)c(=O)n1,,"inconclusive: 39.8 µM [inhibitor, single point]"
COc1ccc(C(=O)N2CCC3(CCCN(Cc4ccccc4OC)C3)CC2)cc1,inactive: -1%,
COc1cc(CN2CCN(c3cccc(Cl)c3)CC2)cc(OC)c1OC,inconclusive: 34.6%,
CCOc1ccc2[nH]c(=O)c(CN(CCO)C(=O)c3ccc(Br)cc3)cc2c1,inconclusive: 50%,
c1ccc2c(c1)c1ccccc1n2Cn1c2ccccc2c2ccccc21,inactive: 3.85% [at 11 µM],
O=C(Cn1c(CN2CCCCC2)nc2ccccc2c1=O)NCc1ccco1,inconclusive: 57.7%,
O=C(CCCCn1c(=O)[nH]c2ccccc2c1=O)NCc1ccc2c(c1)OCO2,inconclusive: 56.9%,
CN(C)C(=O)N1CCCC(C(=O)NCc2ccccc2Cl)C1 (centres undefined),inconclusive: 57%,
NS(=O)(=O)c1cccc2cccnc12,inconclusive: 50.1%,
COc1ccc(-n2c(=O)cc(N3CCN(Cc4ccccc4)CC3)[nH]c2=O)cc1,inactive: -3.18%,
O=C(c1ccc(Cl)cc1)N1CCC(c2nc(-c3cccs3)no2)CC1,inactive: 0.757%,
Cn1c(Cn2c(=O)sc3ccccc32)nnc1SCC(N)=O,inconclusive: 44% [at 2.3 µM],
O=C(CSc1nc2[nH]ncc2c(=O)n1-c1ccccc1)N1CCCc2ccccc21,inconclusive: 30.3%,
COC(=O)c1cccc(N2C(=O)c3cccnc3C2=O)c1,,"inconclusive: 31.6 µM [inhibitor, single point]"
O=C(Cn1cc(C(=O)c2cccs2)c2ccccc21)NCC1CCCO1 (centres undefined),inconclusive: 44%,
CC(C)Cn1c(N)c(C(=O)NCC2CCCO2)c2nc3ccccc3nc21 (centres undefined),,"inconclusive: 25.1 µM [activator, single point]"
COC(=O)[C@H](C)[C@H]1C[C@]1(C)[C@H](NC(=O)OCc1ccccc1)c1ccccc1,,"inconclusive: 31.6 µM [activator, single point]"
COc1cc2c(cc1OC)-c1cc(=Nc3c(C)cc(C)cc3C)n(C)c(=O)n1CC2,inactive: -26.3%,

Compound,"activity change, negative = inhibition",Potency
O=C(O)[C@@H]1[C@@H](C(=O)Nc2ccccc2)[C@@H]2C=C[C@@H]1O2,inactive: 0.551% [at 11 µM],
CCOC(=O)c1cnn(-c2cc(C)c3ccccc3n2)c1N,inconclusive: 55%,
Cc1ccc(-c2cn(S(=O)(=O)c3cccc4nsnc34)nc2N)cc1,,"inconclusive: 31.6 µM [inhibitor, single point]"
CCNc1nc(SCCOc2ccccc2)nc(N(C)C)n1,,"inconclusive: 25.1 µM [activator, single point]"
O=C1CC(c2ccc(S(=O)(=O)N3CCCCC3)cc2)CN1 (centres undefined),inconclusive: 40.5%,
Nc1cc(OC(=O)c2ccccc2Br)nn1S(=O)(=O)c1ccccc1,inconclusive: 46.2%,
CC(C)C(=O)NC(c1ccco1)c1ccc2cccnc2c1O (centres undefined),,active: 10 µM
Clc1ccc2c(c1)C1OCCC1C(c1ccco1)N2 (centres undefined),inconclusive: 72%,
COc1cccc(-c2oc3ccccc3c(=O)c2O)c1,,"inconclusive: 39.8 µM [activator, single point]"
COc1cc2c(cc1OC)-c1cc(NCc3ccccn3)nc(=O)n1CC2,inactive: -9.4%,
CCOC(=O)C1=C(C)NC(=O)NC1C (centres undefined),inactive,
COC(=O)c1ccsc1NC(=O)CSc1nnnn1-c1ccccc1SC,inconclusive: 59%,
O=C(Nc1ccc2c(c1)CCC2)C1CCN(c2c3c(nc4ncnn24)CCC3)CC1,inconclusive: 40.6%,
CCN(CC)c1ccc2c(Cl)c(Br)c(=O)oc2c1,,active: 25.1 µM [activator]
CCCc1nnc(NC(=O)c2c(O)c3cccc4c3n(c2=O)CCC4)s1,inconclusive: 85.2%,
Nc1ccc(-c2cnc(-c3ccc(N)cc3)nc2)cc1,inactive: 1.79%,
NC(=O)CC[C@@H](N)C(=O)O,inactive: -8.05%,
CCOc1ccc(-c2nnc3ccc(SCC(=O)NCc4ccco4)nn23)cc1,inactive: -1.64%,
CCN(c1ccccc1)S(=O)(=O)c1ccc(F)cc1,inconclusive: 82.3%,
COC(=O)C1(CC(C)C)C=C2C(=C(C(C)C)C(=O)C2C)CN1 (centres undefined),inactive: -0.548%,
O=[N+]([O-])c1ccc(S(=O)(=O)Cc2ccccc2)c([N+](=O)[O-])c1,inactive: 3.32% [at 11 µM],

# Some values from the list:
# `NC(=O)CC[C@@H](N)C(=O)O` | activity change, negative = inhibition: inactive: -8.05%
# `Clc1ccc2c(c1)C1OCCC1C(c1ccco1)N2` (centres undefined) | activity change, negative = inhibition: inconclusive: 72%
# `CCOC(=O)C1=C(C)NC(=O)NC1C` (centres undefined) | activity change, negative = inhibition: inactive
# `O=C1CC(c2ccc(S(=O)(=O)N3CCCCC3)cc2)CN1` (centres undefined) | activity change, negative = inhibition: inconclusive: 40.5%

# (listing goes on)

Compound,"activity change, negative = inhibition",Potency
CN(CCNC(=O)C1CC(=O)N(c2ccc(F)c(Cl)c2)C1)Cc1ccccc1 (centres undefined),inactive: 0.999%,
CCC(CC)COC(=O)C(C#N)c1nc2ccccc2nc1N1CCN(CC)CC1 (centres undefined),inactive: -16.1%,
C=C(C)CC1Nc2ccccc2NC1CC(=C)C (centres undefined),,"inconclusive: 31.6 µM [inhibitor, single point]"
O=C1c2cccnc2C(=O)N1c1ccccc1-c1ccccc1,,"inconclusive: 25.1 µM [inhibitor, single point]"
Fc1cccc2sc(N3CCCCC3)nc12,,"inconclusive: 25.1 µM [activator, single point]"
O=S(=O)(NC1CCCCC1)c1cccc(-c2nnc(-c3ccccc3)o2)c1,inactive: 3.36%,
CC[C@@H](C)[C@H](NC(=O)OC(C)(C)C)c1nnc(S(=O)(=O)Cc2cc(C)ccc2C)o1,inconclusive: 48%,
CN1CCc2c(cc(O)c(O)c2Cl)[C@H](c2cccc(Cl)c2)C1,,active: 12.6 µM
CC1CC(C)CN(CCC(=O)Nc2cccc(Cl)c2)C1 (centres undefined),inactive: -4.43%,
O=C(O)COc1ccc2occ(C(=O)c3ccccc3)c2c1,inactive: -4.43%,
CCOC(=O)C1CCN(c2c(NCc3ccc(C(=O)NC(C)CC)cc3)c(=O)c2=O)CC1 (centres undefined),inconclusive: 40.1%,
CCOC(=O)c1cnn2c(C(F)(F)F)cc(-c3cn(C)nc3C)nc12,inactive: -7.07%,
Cc1nn(-c2ccc(F)cc2)c2sc(C(=O)N3CCCCCC3)cc12,inconclusive: 55.5%,
Clc1ccc([C@@H](c2ccccc2Cl)C(Cl)Cl)cc1,,"inconclusive: 25.1 µM [activator, partial curve]"
CCc1ccc(S(=O)(=O)NCc2csc(-c3ccccc3)n2)s1,inconclusive: 73%,
CC(N)=O,inconclusive: 65.5%,
O=c1c(-c2cccs2)nc2cnc(N3CCNCC3)nc2n1Cc1cccs1,inconclusive: 189%,
CN(C)c1ccc(C(=C2C=CC(=[N+](C)C)C=C2)c2c(O)c(S(=O)(=O)O)cc3cc(S(=O)(=O)O)ccc23)cc1,,"inconclusive: 3.98 µM [inhibitor, partial curve]"
Cc1noc(C)c1C(=O)N1CCC2(CCN(Cc3ccccc3)CC2)CC1,inactive: -3.32%,
Cc1cccc(-n2ccnc2SCC(=O)Nc2ccc3c(c2)OCCO3)c1,,"inconclusive: 12.6 µM [inhibitor, partial curve]"
C=C(C)COc1ccc2c(c1)CCC1C2CC[C@]2(C)C(=O)/C(=N/O)CC12 (some centres undefined),inconclusive: 76.2% [at 11 µM],
